{"sequences": {"note": "By UniProt entry, the sequences of proteins in these tests, tags left out.", "UniProt P30904": "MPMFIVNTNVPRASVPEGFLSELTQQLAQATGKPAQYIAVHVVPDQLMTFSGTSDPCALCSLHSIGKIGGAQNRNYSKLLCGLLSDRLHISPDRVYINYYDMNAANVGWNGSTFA"}, "source": "paper PMC7950233", "binders": {"B1": {"name": "CD74 receptor (receptor, UniProt P10247 1-280)", "chain": "MDDQRDLISNHEQLPILGQRARAPESNCNRGVLYTSVSVLVALLLAGQATTAYFLYQQQGRLDKLTVTSQNLQLENLRMKLPKSAKPVSPMRMATPLLMRPLSMDNMLQAPVKNVTKYGNMTQDHVMHLLTKSGPVNYPQLKGSFPENLKHLKNSMNGLDWKVFESWMKQWLLFEMSKNSLEEKQPTQTPPKVLTKCQEEVSHIPDVHPGAFRPKCDENGNYMPLQCHGSTGYCWCVFPNGTEVPHTKSRGRHNCSEPLDMEDPSSGLGVTKQDMGQMFL"}}, "biological_target": "Macrophage migration inhibitory factor (rat (endogenous in primary joint capsule fibroblasts of SD rats)) (UniProt P30904)", "test": "co-IP; total lysates (500 ug) of primary rat JFs treated with MIF for 24 h; precleared with protein A plus G-Sepharose, incubated with anti-MIF or anti-CD74 antibody at 4 C, protein A plus G-Sepharose; immunoblot with anti-MIF or anti-CD74", "note": "Results are given in words; binding and its absence hold for the method and conditions named. Binding seen in cells or lysates may run through a third protein. Some binding calls cover weakened binding; strength is not graded here.", "data": [{"binder": "B1", "values": [{"measurement": "binding", "value": "binds"}]}]}
